These are yes or no findings as the source states them, for the method shown. Binding seen in cells or lysates may run through a third protein. Some entries that bind do so weakly or less than the wild type. For part of these data: Tags and fused reporters may be left off the sequences shown.
Columns and labels:
HA-tagged Cdc6 (human) [1] = target: T1, HA-tagged Cdc6 (human) (UniProt Q99741); experiment: co-IP; co-immunoprecipitation of Cdc6 and ATR with 50 µg/ml ethidium bromide (data not shown)
T1 sequence: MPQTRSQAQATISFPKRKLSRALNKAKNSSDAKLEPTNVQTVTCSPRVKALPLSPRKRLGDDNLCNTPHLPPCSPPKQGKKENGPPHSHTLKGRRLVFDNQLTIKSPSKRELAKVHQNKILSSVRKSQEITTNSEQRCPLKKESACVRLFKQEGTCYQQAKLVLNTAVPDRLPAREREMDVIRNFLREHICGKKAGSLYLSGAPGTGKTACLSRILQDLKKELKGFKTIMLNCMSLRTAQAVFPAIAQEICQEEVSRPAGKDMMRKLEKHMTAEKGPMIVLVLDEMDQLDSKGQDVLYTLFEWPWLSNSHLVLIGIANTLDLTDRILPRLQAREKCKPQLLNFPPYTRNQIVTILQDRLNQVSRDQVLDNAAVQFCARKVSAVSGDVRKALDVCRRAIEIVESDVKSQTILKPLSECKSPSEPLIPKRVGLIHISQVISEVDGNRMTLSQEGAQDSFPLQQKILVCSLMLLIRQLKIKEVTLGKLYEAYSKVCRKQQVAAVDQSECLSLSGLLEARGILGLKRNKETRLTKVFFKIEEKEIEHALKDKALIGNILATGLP

By UniProt entry, the sequences of proteins in these tests, tags left out.
UniProt Q13535: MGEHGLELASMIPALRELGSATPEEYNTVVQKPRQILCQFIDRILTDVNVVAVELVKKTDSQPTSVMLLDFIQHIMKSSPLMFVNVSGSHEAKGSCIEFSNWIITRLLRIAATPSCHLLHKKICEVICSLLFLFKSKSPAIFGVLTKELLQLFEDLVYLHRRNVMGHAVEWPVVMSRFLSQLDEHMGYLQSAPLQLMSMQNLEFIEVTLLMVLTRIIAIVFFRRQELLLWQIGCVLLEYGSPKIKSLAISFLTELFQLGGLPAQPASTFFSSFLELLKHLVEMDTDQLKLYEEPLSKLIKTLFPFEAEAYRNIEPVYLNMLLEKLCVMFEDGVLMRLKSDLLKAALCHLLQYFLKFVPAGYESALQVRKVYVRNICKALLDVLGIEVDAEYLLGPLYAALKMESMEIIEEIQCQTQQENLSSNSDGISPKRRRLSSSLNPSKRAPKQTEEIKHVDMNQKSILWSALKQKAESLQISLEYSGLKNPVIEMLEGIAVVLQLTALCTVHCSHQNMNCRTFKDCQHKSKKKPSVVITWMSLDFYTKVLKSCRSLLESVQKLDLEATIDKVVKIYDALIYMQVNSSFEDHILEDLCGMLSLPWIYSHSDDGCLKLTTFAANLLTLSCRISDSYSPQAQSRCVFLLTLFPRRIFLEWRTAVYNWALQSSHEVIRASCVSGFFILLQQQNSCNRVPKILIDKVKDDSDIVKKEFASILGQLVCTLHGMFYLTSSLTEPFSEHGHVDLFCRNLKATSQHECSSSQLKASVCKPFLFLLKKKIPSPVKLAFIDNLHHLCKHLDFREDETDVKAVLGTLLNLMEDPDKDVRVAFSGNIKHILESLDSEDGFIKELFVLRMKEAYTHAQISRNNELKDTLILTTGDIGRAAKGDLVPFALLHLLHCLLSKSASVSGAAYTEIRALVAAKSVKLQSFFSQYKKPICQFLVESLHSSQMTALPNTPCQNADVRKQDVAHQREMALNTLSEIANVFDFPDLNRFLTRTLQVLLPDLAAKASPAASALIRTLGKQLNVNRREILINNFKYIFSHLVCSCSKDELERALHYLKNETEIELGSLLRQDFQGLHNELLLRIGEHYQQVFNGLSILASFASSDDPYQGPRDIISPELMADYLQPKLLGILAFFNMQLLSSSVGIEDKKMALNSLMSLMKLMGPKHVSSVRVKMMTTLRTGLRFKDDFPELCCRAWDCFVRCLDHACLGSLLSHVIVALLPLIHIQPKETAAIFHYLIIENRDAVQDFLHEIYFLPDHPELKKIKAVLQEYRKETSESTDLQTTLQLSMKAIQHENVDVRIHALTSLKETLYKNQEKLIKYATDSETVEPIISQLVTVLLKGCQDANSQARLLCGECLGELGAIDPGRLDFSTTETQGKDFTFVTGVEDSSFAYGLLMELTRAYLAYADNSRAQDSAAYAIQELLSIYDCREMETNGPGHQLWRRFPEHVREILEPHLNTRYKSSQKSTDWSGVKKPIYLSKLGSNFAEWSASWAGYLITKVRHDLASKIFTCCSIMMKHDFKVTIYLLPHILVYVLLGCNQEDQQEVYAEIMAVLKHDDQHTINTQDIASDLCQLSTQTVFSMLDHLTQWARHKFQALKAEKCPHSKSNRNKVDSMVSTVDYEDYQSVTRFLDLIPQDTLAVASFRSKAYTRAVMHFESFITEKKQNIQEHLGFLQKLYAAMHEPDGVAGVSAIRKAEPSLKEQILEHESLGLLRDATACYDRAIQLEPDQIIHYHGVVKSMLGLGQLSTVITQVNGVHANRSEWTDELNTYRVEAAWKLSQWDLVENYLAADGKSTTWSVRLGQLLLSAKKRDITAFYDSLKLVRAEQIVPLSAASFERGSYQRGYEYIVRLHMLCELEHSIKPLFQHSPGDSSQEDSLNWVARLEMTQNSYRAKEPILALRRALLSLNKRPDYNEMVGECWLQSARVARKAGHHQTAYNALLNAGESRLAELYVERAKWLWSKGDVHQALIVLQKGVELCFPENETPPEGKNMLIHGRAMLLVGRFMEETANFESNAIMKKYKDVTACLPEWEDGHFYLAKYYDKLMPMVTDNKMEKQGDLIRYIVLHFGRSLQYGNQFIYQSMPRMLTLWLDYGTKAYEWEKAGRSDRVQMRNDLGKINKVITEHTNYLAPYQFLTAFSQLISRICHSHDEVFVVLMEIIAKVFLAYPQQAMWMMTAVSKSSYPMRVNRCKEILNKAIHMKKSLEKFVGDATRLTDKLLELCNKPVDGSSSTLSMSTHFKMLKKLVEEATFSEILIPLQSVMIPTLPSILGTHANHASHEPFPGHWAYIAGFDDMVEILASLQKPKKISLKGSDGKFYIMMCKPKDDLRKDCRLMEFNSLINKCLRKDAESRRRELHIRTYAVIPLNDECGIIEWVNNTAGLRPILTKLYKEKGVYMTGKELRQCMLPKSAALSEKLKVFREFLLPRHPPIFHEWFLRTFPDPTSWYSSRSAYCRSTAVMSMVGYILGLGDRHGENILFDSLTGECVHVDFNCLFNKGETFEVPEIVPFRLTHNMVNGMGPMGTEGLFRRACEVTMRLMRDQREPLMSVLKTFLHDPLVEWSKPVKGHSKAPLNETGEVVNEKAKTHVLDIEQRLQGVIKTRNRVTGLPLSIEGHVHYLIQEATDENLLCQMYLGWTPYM

[2] = target: T2, HA-tagged phosphomimetic Cdc6 (S54D, S74D, S106D) (human) (UniProt Q99741); experiment: co-IP; anti-HA immunoprecipitation from non-denatured lysates of transfected HCT116 or CDK2 knockout cells, untreated or 4 h after 12 Gy IR; immunoblot for ATR
T2 sequence: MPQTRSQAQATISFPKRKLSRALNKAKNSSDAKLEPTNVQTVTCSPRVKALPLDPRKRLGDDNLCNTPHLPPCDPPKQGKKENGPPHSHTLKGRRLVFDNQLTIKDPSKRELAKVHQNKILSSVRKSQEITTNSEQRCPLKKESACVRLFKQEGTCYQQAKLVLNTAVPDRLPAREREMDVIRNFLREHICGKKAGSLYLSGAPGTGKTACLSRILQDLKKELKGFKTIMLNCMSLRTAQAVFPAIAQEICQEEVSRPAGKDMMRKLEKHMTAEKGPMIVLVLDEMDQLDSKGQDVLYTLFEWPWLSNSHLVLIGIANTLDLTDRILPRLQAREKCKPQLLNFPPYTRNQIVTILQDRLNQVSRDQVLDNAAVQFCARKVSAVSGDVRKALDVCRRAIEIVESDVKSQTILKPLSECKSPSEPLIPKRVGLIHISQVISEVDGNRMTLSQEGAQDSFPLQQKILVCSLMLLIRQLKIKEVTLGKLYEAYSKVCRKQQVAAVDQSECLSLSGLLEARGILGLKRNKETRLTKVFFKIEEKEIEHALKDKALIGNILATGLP

[3] = target: T3, HA-tagged non-phosphorylatable Cdc6 (S54A, S74A, S106A) (human) (UniProt Q99741); experiment: as above
T3 sequence: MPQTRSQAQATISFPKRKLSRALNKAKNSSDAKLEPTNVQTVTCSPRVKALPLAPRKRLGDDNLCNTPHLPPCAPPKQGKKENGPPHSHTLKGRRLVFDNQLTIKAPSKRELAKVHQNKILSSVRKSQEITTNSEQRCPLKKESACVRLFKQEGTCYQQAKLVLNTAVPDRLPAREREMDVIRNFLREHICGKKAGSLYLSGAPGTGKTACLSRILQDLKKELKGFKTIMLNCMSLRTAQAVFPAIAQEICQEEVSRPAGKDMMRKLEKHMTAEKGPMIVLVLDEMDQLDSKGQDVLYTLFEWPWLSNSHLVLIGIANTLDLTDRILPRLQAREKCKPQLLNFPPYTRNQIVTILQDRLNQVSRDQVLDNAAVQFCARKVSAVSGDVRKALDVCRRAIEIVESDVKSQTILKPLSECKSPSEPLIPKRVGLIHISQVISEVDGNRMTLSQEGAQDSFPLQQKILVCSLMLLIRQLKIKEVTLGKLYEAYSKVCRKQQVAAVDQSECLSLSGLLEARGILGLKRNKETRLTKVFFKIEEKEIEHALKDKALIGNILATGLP

HA-tagged Cdc6 (human) [4] = target: T1, HA-tagged Cdc6 (human); experiment: as above
[5] = target: ATR (human (endogenous in HCT116 and U2OS)) (UniProt Q13535); experiment: co-IP; anti-ATR immunoprecipitation of endogenous proteins from non-denatured lysates of HCT116 and isogenic cells, before or 4 h after 12 Gy IR; Protein A/G agarose overnight at 4°C; immunoblot
[6] = target: ATR (human (endogenous in HCT116 and U2OS)) (UniProt Q13535); experiment: co-IP; anti-ATR immunoprecipitation from non-denatured lysates of HCT116 or U2OS cells transfected with HA-Cdc6, untreated or 4 h after 12 Gy IR; immunoblot for HA-Cdc6

In the case of “ATR (from UniProt Q13535 1-2644) (enzyme)”, the binding (HA-tagged Cdc6 (human) [1]) is reported as “binds”, the binding [2] is reported as “binds” and the binding [3] is reported as “binds”. The binding (HA-tagged Cdc6 (human) [4]) was “binds”.

B1: Cdc6 (endogenous) (protein, UniProt Q99741 1-560)
chain: MPQTRSQAQATISFPKRKLSRALNKAKNSSDAKLEPTNVQTVTCSPRVKALPLSPRKRLGDDNLCNTPHLPPCSPPKQGKKENGPPHSHTLKGRRLVFDNQLTIKSPSKRELAKVHQNKILSSVRKSQEITTNSEQRCPLKKESACVRLFKQEGTCYQQAKLVLNTAVPDRLPAREREMDVIRNFLREHICGKKAGSLYLSGAPGTGKTACLSRILQDLKKELKGFKTIMLNCMSLRTAQAVFPAIAQEICQEEVSRPAGKDMMRKLEKHMTAEKGPMIVLVLDEMDQLDSKGQDVLYTLFEWPWLSNSHLVLIGIANTLDLTDRILPRLQAREKCKPQLLNFPPYTRNQIVTILQDRLNQVSRDQVLDNAAVQFCARKVSAVSGDVRKALDVCRRAIEIVESDVKSQTILKPLSECKSPSEPLIPKRVGLIHISQVISEVDGNRMTLSQEGAQDSFPLQQKILVCSLMLLIRQLKIKEVTLGKLYEAYSKVCRKQQVAAVDQSECLSLSGLLEARGILGLKRNKETRLTKVFFKIEEKEIEHALKDKALIGNILATGLP
With B1 the binding [5] was “binds”.

B2: HA-tagged Cdc6 (protein, UniProt Q99741 1-560)
chain: MPQTRSQAQATISFPKRKLSRALNKAKNSSDAKLEPTNVQTVTCSPRVKALPLSPRKRLGDDNLCNTPHLPPCSPPKQGKKENGPPHSHTLKGRRLVFDNQLTIKSPSKRELAKVHQNKILSSVRKSQEITTNSEQRCPLKKESACVRLFKQEGTCYQQAKLVLNTAVPDRLPAREREMDVIRNFLREHICGKKAGSLYLSGAPGTGKTACLSRILQDLKKELKGFKTIMLNCMSLRTAQAVFPAIAQEICQEEVSRPAGKDMMRKLEKHMTAEKGPMIVLVLDEMDQLDSKGQDVLYTLFEWPWLSNSHLVLIGIANTLDLTDRILPRLQAREKCKPQLLNFPPYTRNQIVTILQDRLNQVSRDQVLDNAAVQFCARKVSAVSGDVRKALDVCRRAIEIVESDVKSQTILKPLSECKSPSEPLIPKRVGLIHISQVISEVDGNRMTLSQEGAQDSFPLQQKILVCSLMLLIRQLKIKEVTLGKLYEAYSKVCRKQQVAAVDQSECLSLSGLLEARGILGLKRNKETRLTKVFFKIEEKEIEHALKDKALIGNILATGLP
With B2 the binding [6] was “binds”.

Reference: paper PMC2829054
